In PubChem BioAssay AID2585 (National Center for Advancing Translational Sciences (NCATS), 2010):
Inconclusive means that the source gave no clear call. Such entries were picked first, then a sample of the others. Potencies beside an inconclusive call are fits to weak or partial responses and may not hold up. Active and inactive are the calls of the source. Calls come from the whole dose curve; as a rule, active = well fitted inhibition curve with a large enough effect; inconclusive = small, poorly fitted or top-dose-only effect; inactive = no such curve, though single readings can be large or run the other way.

The chains behind the UniProt entries cited, without tags or fusion partners. Where a name states a change or a piece, a line headed by the entry shows the natural chain unless it says otherwise.
UniProt P54132: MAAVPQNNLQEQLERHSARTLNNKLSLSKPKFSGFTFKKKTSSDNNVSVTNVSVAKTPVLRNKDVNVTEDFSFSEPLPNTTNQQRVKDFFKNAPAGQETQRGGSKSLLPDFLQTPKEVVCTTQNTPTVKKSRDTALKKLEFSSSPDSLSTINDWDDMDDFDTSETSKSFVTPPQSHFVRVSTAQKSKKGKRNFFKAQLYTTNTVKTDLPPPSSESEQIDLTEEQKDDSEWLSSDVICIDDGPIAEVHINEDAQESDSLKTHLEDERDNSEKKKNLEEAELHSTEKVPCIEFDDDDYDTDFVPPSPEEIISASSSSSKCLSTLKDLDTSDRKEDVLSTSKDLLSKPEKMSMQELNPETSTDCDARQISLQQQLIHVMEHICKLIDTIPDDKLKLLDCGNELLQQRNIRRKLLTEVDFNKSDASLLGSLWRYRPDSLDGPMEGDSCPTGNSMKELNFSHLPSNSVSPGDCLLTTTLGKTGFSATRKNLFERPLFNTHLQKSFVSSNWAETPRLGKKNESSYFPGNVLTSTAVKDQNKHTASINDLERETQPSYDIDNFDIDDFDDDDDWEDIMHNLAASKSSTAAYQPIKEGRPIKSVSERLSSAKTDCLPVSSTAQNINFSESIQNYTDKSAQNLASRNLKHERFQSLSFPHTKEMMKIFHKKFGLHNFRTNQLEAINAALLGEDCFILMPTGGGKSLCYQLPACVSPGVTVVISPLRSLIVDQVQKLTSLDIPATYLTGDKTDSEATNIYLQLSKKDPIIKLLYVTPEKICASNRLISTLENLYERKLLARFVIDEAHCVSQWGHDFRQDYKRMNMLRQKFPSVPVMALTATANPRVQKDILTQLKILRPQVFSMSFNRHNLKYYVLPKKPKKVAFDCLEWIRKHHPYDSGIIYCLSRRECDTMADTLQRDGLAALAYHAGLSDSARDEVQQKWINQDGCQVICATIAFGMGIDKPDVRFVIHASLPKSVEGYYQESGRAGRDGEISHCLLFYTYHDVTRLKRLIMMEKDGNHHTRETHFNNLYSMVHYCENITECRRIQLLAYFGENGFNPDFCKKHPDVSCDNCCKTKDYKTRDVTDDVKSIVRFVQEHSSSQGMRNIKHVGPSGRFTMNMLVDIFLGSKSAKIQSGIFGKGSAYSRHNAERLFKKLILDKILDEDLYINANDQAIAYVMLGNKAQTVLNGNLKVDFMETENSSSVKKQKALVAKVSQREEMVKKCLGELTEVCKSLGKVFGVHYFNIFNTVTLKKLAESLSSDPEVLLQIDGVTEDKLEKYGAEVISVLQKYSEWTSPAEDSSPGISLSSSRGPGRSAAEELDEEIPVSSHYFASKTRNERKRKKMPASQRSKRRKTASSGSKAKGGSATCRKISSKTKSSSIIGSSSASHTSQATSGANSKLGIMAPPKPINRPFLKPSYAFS

What follows are compounds tested against RecQ-like DNA helicase BLM (Homo sapiens) (UniProt P54132) (assay: qHTS Confirmation Assay for Inhibitors of Bloom's syndrome helicase (BLM)). Conditions: BLM DNA unwinding, fluorescence quenching, biochemical.
Source text: Survival of cells and the faithful propagation of the genome depend on elaborate mechanisms of detecting and repairing DNA damage. Treatment of advanced cancer relies on radiation therapy or chemotherapy, which kill cancer cells by causing extensive DNA damage. It is often found, that cancer cells develop resistance to therapy through enhanced activity of DNA repair functions; this has led to an increased interest in developing drugs that interfere with DNA repair, which could sensitize cancer cells to conventional therapy. This validation qHTS assay pertains to human BLM, which is important in resolving abnormal DNA structures formed during replication or homologous recombination. Shutting down the expression of BLM leads to chromosomal instability and higher radiation sensitivity in cultured cells. The validation assay was a fluorescence quenching based kinetic qHTS for BLM Helicase DNA unwinding. The activity was measured as ATP-dependent separation of a 20-bp DNA duplex extended by 30-nt single-stranded tails (forked duplex). The forked DNA substrate was tagged with rhodamine fluorophore (carboxytetramethyl rhodamine, TAMRA) and BHQ-2 (Black Hole Quencher 2) dark quencher. Strand separation results in an increase in the fluorescence of TAMRA (excitation 525 nm, emission 598 nm). This substrate construct operates in a red-shifted region where very few compound library members have been noted to fluoresce (PubChem AIDs 593 and 594). An additional feature of the assay is the inclusion of 2.5 ug/ml poly (dIdC), to reduce interference by compounds such as DNA intercalators, a major source of false inhibitors. Assay Providers: Ian Hickson, University of Oxford Opher Gileadi, Structural Genomics Consortium, University of Oxford Screening Center PI: Austin, C.P. Screening Center: NIH Chemical Genomics Center [NCGC]
Three uL of reaction buffer (25 mM Tris-HCl (pH 8.0), 5 mM NaCl, 2 mM MgCl2, 1mM DTT, 0.01% Tween- 20, and 2.5 ug/ml poly(dI-dC), including enzyme (50 nM BLM), were dispensed into a 1536-well Greiner black assay plate via solenoid-valve based nanoliter dispensers. Compounds (23 nl each in columns 5-48) and control (23 nl each in column 2 as dose-response) were transferred via a Kalypsys pintool equipped with a 1536-pin array. The plates were incubated for 15 min at room temperature, and then 1 ul of substrates (200 nM DNA and 2 mM ATP, final concentrations) was added to start the reaction. The plate was transferred into a ViewLux high-throughput CCD imager where the reaction progress was measured in a discontinuous kinetic mode (two reads spaced 2 hours apart, with intermediate room temperature incubation of the covered assay plate) by using standard red-fluorescence optics (excitation filter 525 nm, emission filter 598 nm). Enzyme-free and vehicle (DMSO) controls were included for signal normalization.
% is set by controls: 0 for no effect and ±100 for the full control effect; potency is the fitted concentration of half-maximal effect.
Note: nearly all actives have a fitted effect of over 45% in size.

Row | Compound | Potency | max response, negative = inhibition
1 | C[C@]12CC[C@@H]3c4ccc(OC(=O)N(CCCl)CCCl)cc4CC[C@H]3[C@@H]1CC[C@@H]2O | active: 30.4 µM | 
2 | Cc1cccn2c(=O)cc(COc3cccc(NC(=O)COc4ccc(F)cc4)c3)nc12 | inconclusive: 5.76 µM [inhibitor, full curve] | 
3 | CCc1nnc(NC(=O)CSc2ccc(-c3ccco3)nn2)s1 | inconclusive: 20.4 µM [inhibitor, partial curve] | 
4 | CC(C)OCCCNC(=O)c1c(N)n(CC2CCCO2)c2nc3ccccc3nc12 (stereo not given) |  | inactive: -10.6%
5 | CCCCn1c(NS(=O)(=O)c2ccccc2)c(C(=O)OCC)c2nc3ccccc3nc21 |  | inactive: -10.4%
